From article PMC9675754, “Structure of the human heparan sulfate polymerase complex EXT1-EXT2” (Nature Communications, 2022) come the findings set out here.

In experiment [1] the target is human EXT1 (exostosin-1), N-terminally truncated, aa29-aa746 (human) (UniProt Q16394). The experiment in a line: cryo-EM structure; 0.4 mg/mL purified, co-expressed EXT1-EXT2 with 1 mM UDP-GlcNAc, 1 mM UDP-GlcA and 1 mM MnCl2; single-particle analysis, 2.8 Å; both purified.
Experiment [2] deals with T1, human EXT2 aa47-aa718 D538N/D540N (human) (UniProt Q93063).
T1 sequence: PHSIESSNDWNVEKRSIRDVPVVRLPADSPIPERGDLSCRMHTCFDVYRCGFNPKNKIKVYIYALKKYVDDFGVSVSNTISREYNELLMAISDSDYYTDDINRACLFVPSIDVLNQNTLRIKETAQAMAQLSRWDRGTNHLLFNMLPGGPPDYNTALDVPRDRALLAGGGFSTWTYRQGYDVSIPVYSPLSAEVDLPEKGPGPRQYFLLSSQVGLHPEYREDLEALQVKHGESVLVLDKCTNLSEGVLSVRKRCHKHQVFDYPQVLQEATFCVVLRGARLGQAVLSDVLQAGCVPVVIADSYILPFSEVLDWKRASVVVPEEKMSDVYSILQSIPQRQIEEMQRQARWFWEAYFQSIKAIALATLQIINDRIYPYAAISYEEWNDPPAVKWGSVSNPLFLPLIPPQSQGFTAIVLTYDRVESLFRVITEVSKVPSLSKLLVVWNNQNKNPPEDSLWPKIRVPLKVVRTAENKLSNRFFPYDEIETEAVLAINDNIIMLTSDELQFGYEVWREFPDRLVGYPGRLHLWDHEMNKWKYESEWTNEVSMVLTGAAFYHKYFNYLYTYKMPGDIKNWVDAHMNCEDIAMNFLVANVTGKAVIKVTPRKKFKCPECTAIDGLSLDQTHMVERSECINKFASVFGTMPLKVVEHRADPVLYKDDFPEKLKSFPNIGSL
The experiment in a line: co-purification of co-expressed proteins (immobilised metal affinity chromatography); both chains co-expressed and secreted from FreeStyle 293-F cells, both with C-terminal 8x His; two HisTrap HP steps with TEV cleavage between; 50 mM Tris pH 7.8, 150 mM NaCl, 4 °C.

In experiment [3] the target is T2, human EXT2 aa47-aa718 R266A (human) (UniProt Q93063).
T2 sequence: T1 sequence with R220A, N492D, N494D
Described as above.

Experiment [4] has as its target T3, human EXT2 (exostosin-2), N-terminally truncated, aa47-aa718 (human) (UniProt Q93063).
T3 sequence (chain, N-linked glycan at Asn637): T1 sequence with N492D, N494D
The description is as above.

Experiment [5] deals with T3, human EXT2 (exostosin-2), N-terminally truncated, aa47-aa718 (human). Briefly: cryo-EM structure; 0.4 mg/mL purified, co-expressed EXT1-EXT2 with 1 mM UDP-GlcNAc, 1 mM UDP-GlcA and 1 mM MnCl2; single-particle analysis, 2.8 Å; both purified.

Numbering of substitutions follows the chain as printed. Numbers in names are those of the source. No constants are given. Whether binding was seen depends on the method and setting. Some binding calls cover weakened binding; strength is not graded here.

B1: human EXT1 (exostosin-1), N-terminally truncated, aa29-aa746 (enzyme, UniProt Q16394 29-746, looked up)
chain: RASRSHSRREEHSGRNGLHHPSPDHFWPRFPDALRPFVPWDQLENEDSSVHISPRQKRDANSSIYKGKKCRMESCFDFTLCKKNGFKVYVYPQQKGEKIAESYQNILAAIEGSRFYTSDPSQACLFVLSLDTLDRDQLSPQYVHNLRSKVQSLHLWNNGRNHLIFNLYSGTWPDYTEDVGFDIGQAMLAKASISTENFRPNFDVSIPLFSKDHPRTGGERGFLKFNTIPPLRKYMLVFKGKRYLTGIGSDTRNALYHVHNGEDVVLLTTCKHGKDWQKHKDSRCDRDNTEYEKYDYREMLHNATFCLVPRGRRLGSFRFLEALQAACVPVMLSNGWELPFSEVINWNQAAVIGDERLLLQIPSTIRSIHQDKILALRQQTQFLWEAYFSSVEKIVLTTLEIIQDRIFKHISRNSLIWNKHPGGLFVLPQYSSYLGDFPYYYANLGLKPPSKFTAVIHAVTPLVSQSQPVLKLLVAAAKSQYCAQIIVLWNCDKPLPAKHRWPATAVPVVVIEGESKVMSSRFLPYDNIITDAVLSLDEDTVLSTTEVDFAFTVWQSFPERIVGYPARSHFWDNSKERWGYTSKWTNDYSMVLTGAAIYHKYYHYLYSHYLPASLKNMVDQLANCEDILMNFLVSAVTKLPPIKVTQKKQYKETMMGQTSRASRWADPDHFAQRQSCMNTFASWFGYMPLIHSQMRLDPVLFKDQVSILRKKYRDIERL
modifications: N-linked glycan at Asn330
notes: exostosin-1 (EXT1), human, residues 29-746, lacking the N-terminal transmembrane helix; Only obtained by co-expression with EXT2; Model built for aa89-aa728 with some loops missing; also called EXT1 WT; not shown: secreted alkaline phosphatase, N-terminal, cleaved; 8x His, C-terminal, kept
Take B1: the binding entry is recorded as “no binding” in experiment [1], “binds” in experiment [2] and “binds” in experiment [3].

B2: human EXT1 aa29-aa746 R346A (enzyme, UniProt Q16394 29-746)
chain: B1 chain with R318A
For B2, in experiment [4], the binding result is listed as “binds”.

B3: human EXT1 aa29-aa746 D565N/D567N (enzyme, UniProt Q16394 29-746)
chain: B1 chain with D537N, D539N
In the case of B3, the binding result in experiment [4] is recorded as “binds”.

B4: human EXT1 aa29-aa746 R280A (enzyme, UniProt Q16394 29-746)
chain: B1 chain with R252A
Turning to B4, in experiment [4], the binding entry is listed as “binds”.

B5: human EXT2 (exostosin-2), N-terminally truncated, aa47-aa718 (enzyme, UniProt Q93063 47-718, looked up)
chain: T1 sequence with N492D, N494D
modifications: N-linked glycan at Asn637
notes: exostosin-2 (EXT2), human, residues 47-718, lacking the N-terminal transmembrane helix; Only obtained by co-expression with EXT1; Model built for aa78-aa702 with some loops missing; also called EXT2 WT; not shown: secreted alkaline phosphatase, N-terminal, cleaved; 8x His, C-terminal, kept
As to B5, the binding result in experiment [5] was “no binding”.
